The series concerns metastatic (Stage IV) squamous or non-squamous NSCLC. Nature of the series: Phase 2 study in front-line NSCLC (ARC-7), efficacy. It is filed as in vivo, human. The note with it: ITT-13, cutoff Aug. 31, 2022. An excerpt: Participants were randomized 1:1:1 across the three study arms and treated until disease progression or loss of clinical benefit. […] Patients in the zimberelimab monotherapy arm with confirmed progression had the option to cross over to the triplet arm. Co-primary endpoints were objective response rate (ORR) and progression-free survival (PFS). Secondary endpoints included safety, duration of response and disease control rates. Additional assessments of response/on-treatment effects may include measures of immune cell activation, immune cell suppression, immune cell proliferation, T cell receptor dynamics, and/or increases in memory and antigen experienced T cells in periphery or tumor microenvironment, as well as molecular response assessment by ctDNA dynamics and/or changes in tumor cell markers or gene expression.
Further data were obtained from an interim analysis with a data cutoff of Aug. 31, 2022.

As for “zimberelimab: antagonistic PD-1 antibody, immune checkpoint inhibitor”, the “patients remaining on study treatment” value was 28%.

For the origin of these results see patent US20250179176A1, “ANTI-TIGIT ANTIBODIES AND USES OF THE SAME” (ARCUS BIOSCIENCES, INC., priority 2022, published 2025).
